Measured data: PubChem BioAssay AID652272 (Drosophila RNAi Screening Center, 2013)

- Screen: 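Genes whose knock-down decreases or increases Hedgehog reporter output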 (primary screen)
- Cells: Drosophila clone 8 (Cl8) cells
- Reagents: long dsRNA against Drosophila genes
- Detection: 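Plate reader light from a firefly reporter under a ptc promoter fragment that responds to Hedgehog, with Renilla light as transfection reference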
- Direction: firefly Hh reporter signal: higher = more ptc reporter light; Renilla reference signal: higher = more Renilla control light
- Active means: 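Called a hit if the two-replicate mean z-score lies below -2 or above +3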
- Calls: active = hit: reporter lowered or raised; inactive = not a hit
The screen tested about 21,000 reagents; shown is an unselected part of those with a known target gene and a result. Of all reagents, 503 (2.4%) are marked active. 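Raw plate light values, not normalised; calls rest on replicate z-scores that were not deposited; hits include reporter decreases as well as increases.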 Entries without a mark were called inactive. A plus sign joins genes that one reagent is predicted to hit. Not stated in the record: the amount of reagent, the time to read-out.

| Target gene | dsRNA | firefly Hh reporter signal, replicate 1 | firefly Hh reporter signal, replicate 2 | firefly Hh reporter signal, replicate 3 | Renilla reference signal, replicate 1 | Renilla reference signal, replicate 2 |
| --- | --- | --- | --- | --- | --- | --- |
| arx | DRSC10386 | 67245 | 79780 | – | 2981 | 3596 |
| CG16904 | DRSC15161 | 1.00e5 | 64088 | – | 3692 | 2292 |
| CG7329 | DRSC03046 | 1.31e5 | 50967 | – | 3634 | 4664 |
| CG31533 | DRSC13018 | 33113 | 1.63e5 | – | 1592 | 2008 |
| Rim | DRSC16224 | 5.24e5 | 1.00e5 | – | 23944 | 2038 |
| Rim | DRSC16225 | 1.72e5 (active) | 28989 | – | 14600 | 1216 |
| Rim | DRSC16226 | 1.23e5 | 74160 | – | 5060 | 2909 |
| Rim | DRSC16227 | 6.73e5 | 1.30e5 | – | 39627 | 3760 |
| Elp2 | DRSC06095 | 64691 | 39157 | – | 2150 | 1232 |
| Dolk | DRSC07143 | 1.11e5 | 54022 | – | 2983 | 3115 |
| Jon99Ci | DRSC16860 | 90736 | 1.31e5 | – | 3111 | 4397 |
| sing + Axs | DRSC19333 | 80278 | 1.73e5 | – | 2965 | 8188 |
| Naus | DRSC06011 | 56672 | 82362 | – | 3612 | 4102 |
| Naus | DRSC06469 | 73079 | 40989 | – | 2201 | 3521 |
| AGO2 | DRSC09999 | 22504 (active) | – | – | 960 | 1048 |
| AGO2 | DRSC10847 | 59136 | 26992 | – | 2678 | 1364 |
| Klf15 | DRSC17742 | 59849 | 1.53e5 | – | 2197 | 5777 |
| beta4GalNAcTB | DRSC14869 | 1.45e5 | 1.17e5 | – | 5171 | 2763 |
| Cpn | DRSC16613 | 83971 | 88827 | – | 3925 | 4155 |
| CG3107 | DRSC04888 | 62099 | 78304 | – | 2915 | 2900 |
| CG7488 | DRSC16250 | 90356 | 1.01e5 | – | 1364 | 1874 |
| Ugt36E1 | DRSC02599 | 32155 | 52101 | – | 1353 | 2244 |
| Ssk | DRSC10756 | 99674 | 1.20e5 | – | 3792 | 4761 |
| CG4467 | DRSC15585 | 5.92e5 | 1.20e5 | – | 27248 | 4128 |
| Toll-9 | DRSC11776 | 65821 | 55541 | – | 2755 | 2352 |
| CG32182 | DRSC09508 | 1.65e5 | – | – | 3920 | – |
| CG13198 | DRSC06323 | 82137 | 41872 | – | 1976 | 4027 |
| Ir68a | DRSC10599 | 56514 | 43219 | 46944 | 4034 | 3527 |
| CG7457 | DRSC10849 | 59493 | 43280 | – | 5520 | 4338 |
| GLS | DRSC07261 | 93483 | 91315 | – | 3885 | 3479 |
| Psf3 | DRSC18216 | 1.70e5 | 4.21e5 | – | 6208 | 15200 |
| ND-75 | DRSC18686 | 89061 | 3.36e5 | – | 2347 | 9874 |

Part of the list above in another layout:
{"Target gene": "CG16904", "dsRNA": "DRSC15161", "firefly Hh reporter signal, replicate 1": 1.00e5, "firefly Hh reporter signal, replicate 2": 64088, "Renilla reference signal, replicate 1": 3692, "Renilla reference signal, replicate 2": 2292}
{"Target gene": "CG7329", "dsRNA": "DRSC03046", "firefly Hh reporter signal, replicate 1": 1.31e5, "firefly Hh reporter signal, replicate 2": 50967, "Renilla reference signal, replicate 1": 3634, "Renilla reference signal, replicate 2": 4664}
{"Target gene": "CG31533", "dsRNA": "DRSC13018", "firefly Hh reporter signal, replicate 1": 33113, "firefly Hh reporter signal, replicate 2": 1.63e5, "Renilla reference signal, replicate 1": 1592, "Renilla reference signal, replicate 2": 2008}
{"Target gene": "Rim", "dsRNA": "DRSC16224", "firefly Hh reporter signal, replicate 1": 5.24e5, "firefly Hh reporter signal, replicate 2": 1.00e5, "Renilla reference signal, replicate 1": 23944, "Renilla reference signal, replicate 2": 2038}
{"Target gene": "Rim", "dsRNA": "DRSC16225", "firefly Hh reporter signal, replicate 1": "1.72e5 (active)", "firefly Hh reporter signal, replicate 2": 28989, "Renilla reference signal, replicate 1": 14600, "Renilla reference signal, replicate 2": 1216}
{"Target gene": "Rim", "dsRNA": "DRSC16226", "firefly Hh reporter signal, replicate 1": 1.23e5, "firefly Hh reporter signal, replicate 2": 74160, "Renilla reference signal, replicate 1": 5060, "Renilla reference signal, replicate 2": 2909}
{"Target gene": "Rim", "dsRNA": "DRSC16227", "firefly Hh reporter signal, replicate 1": 6.73e5, "firefly Hh reporter signal, replicate 2": 1.30e5, "Renilla reference signal, replicate 1": 39627, "Renilla reference signal, replicate 2": 3760}
{"Target gene": "Elp2", "dsRNA": "DRSC06095", "firefly Hh reporter signal, replicate 1": 64691, "firefly Hh reporter signal, replicate 2": 39157, "Renilla reference signal, replicate 1": 2150, "Renilla reference signal, replicate 2": 1232}

Continued.
| Target gene | dsRNA | firefly Hh reporter signal, replicate 1 | firefly Hh reporter signal, replicate 2 | firefly Hh reporter signal, replicate 3 | Renilla reference signal, replicate 1 | Renilla reference signal, replicate 2 |
| --- | --- | --- | --- | --- | --- | --- |
| corn | DRSC11021 | 92278 | 83450 | – | 4013 | 3461 |
| MME1 | DRSC02714 | 75651 | 78874 | – | 3301 | 3356 |
| CG15597 | DRSC12283 | 1.48e5 | 1.67e5 | – | 5307 | 4884 |
| Agps | DRSC05984 | 71776 | 51712 | – | 2085 | 4092 |
| kappaB-Ras + CG30503 | DRSC06619 | 69512 | 63648 | – | 1812 | 4891 |
| kappaB-Ras + CG30503 | DRSC07636 | 1.16e5 | 60704 | – | 2695 | 5187 |
| PSMG1 | DRSC12297 | 1.06e5 | 62048 | – | 4277 | 2817 |
| Task6 | DRSC16530 | 92311 | 1.15e5 | – | 1920 | 3075 |
| CG33340 | DRSC14615 | 4.66e5 | 94352 | – | 21920 | 3157 |
| CG8202 | DRSC16396 | 92886 | 1.56e5 | – | 3788 | 8643 |
| 5-HT2A | DRSC11990 | 1.02e5 | 94700 | – | 3397 | 3857 |
| CG6790 | DRSC16117 | 1.19e5 | 1.18e5 | – | 5532 | 4608 |
| CG31097 | DRSC14666 | 5.58e5 | 1.61e5 | – | 28627 | 4320 |
| CG30196 | DRSC04156 | 1.12e5 | 64867 | – | 2874 | 6108 |
| CG12133 | DRSC06108 | 1.06e5 | 49997 | – | 2432 | 4525 |
| Syx6 | DRSC07032 | 68976 | 65606 | – | 2676 | 2336 |
| CG33459 | DRSC05615 | 1.17e5 | 1.53e5 | – | 2873 | 6688 |
| CG4041 | DRSC18339 | 1.08e5 | 1.87e5 | – | 3729 | 7352 |
| CG10019 | DRSC00279 | 1.36e5 | 33785 | – | 3094 | 3254 |
| CG16762 | DRSC08493 | 1.05e5 | 59611 | – | 3444 | 4928 |
| bnl | DRSC13377 | 53221 | 3.08e5 | – | 10700 | 6493 |
| bnl | DRSC16913 | 31232 | 1.10e5 | – | 1938 | 4469 |
| CG18557 | DRSC00524 | 1.43e5 | 1.02e5 | – | 3402 | 2352 |
| Or47a | DRSC07491 | 72503 | 49601 | – | 1708 | 3664 |
| CG33333 | DRSC13233 | 57971 | 1.72e5 | – | 12133 | 3756 |
